Test results: patent US5310757A, “3,3,5-trimethylcyclohexyl 2-methylpropionate derivatives, their method of preparation and therapeutic compositions in which they are present” (Panmedica, priority 1989, dated 1994)

Tested on: HMG-CoA red.
Test: HMG-CoA red. activity "ex vivo" in liver microsomes after chronic intraperitoneal administration to rats
Conditions: inhibition of HMG-CoA red. activity, 50 mg/kg for 6 days, Control 0
Procedure: The inhibitory activity of the products according to the present invention was determined by the method of Kuroda et al. (Biochemica et Biophysica Acta, vol. 486, pp. 70-81 (1977)), which is a modification of the method of Shapiro et al. (Analytical Biochemistry, vol. 31, pp. 383-390 (1969)). […] The doses administered were 50 mg/kg for 6 days; six rats were used in each series; they are sacrificed without anaesthesia and the liver microsomes are isolated for the assay, which is performed according to the above-mentioned protocol.

**Q.** `CC(C)OC(=O)C(C)(C)Oc1ccc(C(=O)c2ccc(Cl)cc2)cc1` [Fenofibrate, isopropyl 4-(4-chlorobenzoyl)phenoxyisobutyrate, reference compound] was tested. Which “% inhibition” value did it give?
**A.** Its value is 75%.
